In paper PMC8866856:
These are yes or no findings as the source states them, for the method shown. Binding seen in cells or lysates may run through a third protein. A result given as binding can be weak or reduced; the word gives no strength.

Amino acid sequences for entries named in this document (tags omitted). A change or cut given only in a name is not applied to a line headed by its entry. Residues count along the entry.
UniProt Q01705: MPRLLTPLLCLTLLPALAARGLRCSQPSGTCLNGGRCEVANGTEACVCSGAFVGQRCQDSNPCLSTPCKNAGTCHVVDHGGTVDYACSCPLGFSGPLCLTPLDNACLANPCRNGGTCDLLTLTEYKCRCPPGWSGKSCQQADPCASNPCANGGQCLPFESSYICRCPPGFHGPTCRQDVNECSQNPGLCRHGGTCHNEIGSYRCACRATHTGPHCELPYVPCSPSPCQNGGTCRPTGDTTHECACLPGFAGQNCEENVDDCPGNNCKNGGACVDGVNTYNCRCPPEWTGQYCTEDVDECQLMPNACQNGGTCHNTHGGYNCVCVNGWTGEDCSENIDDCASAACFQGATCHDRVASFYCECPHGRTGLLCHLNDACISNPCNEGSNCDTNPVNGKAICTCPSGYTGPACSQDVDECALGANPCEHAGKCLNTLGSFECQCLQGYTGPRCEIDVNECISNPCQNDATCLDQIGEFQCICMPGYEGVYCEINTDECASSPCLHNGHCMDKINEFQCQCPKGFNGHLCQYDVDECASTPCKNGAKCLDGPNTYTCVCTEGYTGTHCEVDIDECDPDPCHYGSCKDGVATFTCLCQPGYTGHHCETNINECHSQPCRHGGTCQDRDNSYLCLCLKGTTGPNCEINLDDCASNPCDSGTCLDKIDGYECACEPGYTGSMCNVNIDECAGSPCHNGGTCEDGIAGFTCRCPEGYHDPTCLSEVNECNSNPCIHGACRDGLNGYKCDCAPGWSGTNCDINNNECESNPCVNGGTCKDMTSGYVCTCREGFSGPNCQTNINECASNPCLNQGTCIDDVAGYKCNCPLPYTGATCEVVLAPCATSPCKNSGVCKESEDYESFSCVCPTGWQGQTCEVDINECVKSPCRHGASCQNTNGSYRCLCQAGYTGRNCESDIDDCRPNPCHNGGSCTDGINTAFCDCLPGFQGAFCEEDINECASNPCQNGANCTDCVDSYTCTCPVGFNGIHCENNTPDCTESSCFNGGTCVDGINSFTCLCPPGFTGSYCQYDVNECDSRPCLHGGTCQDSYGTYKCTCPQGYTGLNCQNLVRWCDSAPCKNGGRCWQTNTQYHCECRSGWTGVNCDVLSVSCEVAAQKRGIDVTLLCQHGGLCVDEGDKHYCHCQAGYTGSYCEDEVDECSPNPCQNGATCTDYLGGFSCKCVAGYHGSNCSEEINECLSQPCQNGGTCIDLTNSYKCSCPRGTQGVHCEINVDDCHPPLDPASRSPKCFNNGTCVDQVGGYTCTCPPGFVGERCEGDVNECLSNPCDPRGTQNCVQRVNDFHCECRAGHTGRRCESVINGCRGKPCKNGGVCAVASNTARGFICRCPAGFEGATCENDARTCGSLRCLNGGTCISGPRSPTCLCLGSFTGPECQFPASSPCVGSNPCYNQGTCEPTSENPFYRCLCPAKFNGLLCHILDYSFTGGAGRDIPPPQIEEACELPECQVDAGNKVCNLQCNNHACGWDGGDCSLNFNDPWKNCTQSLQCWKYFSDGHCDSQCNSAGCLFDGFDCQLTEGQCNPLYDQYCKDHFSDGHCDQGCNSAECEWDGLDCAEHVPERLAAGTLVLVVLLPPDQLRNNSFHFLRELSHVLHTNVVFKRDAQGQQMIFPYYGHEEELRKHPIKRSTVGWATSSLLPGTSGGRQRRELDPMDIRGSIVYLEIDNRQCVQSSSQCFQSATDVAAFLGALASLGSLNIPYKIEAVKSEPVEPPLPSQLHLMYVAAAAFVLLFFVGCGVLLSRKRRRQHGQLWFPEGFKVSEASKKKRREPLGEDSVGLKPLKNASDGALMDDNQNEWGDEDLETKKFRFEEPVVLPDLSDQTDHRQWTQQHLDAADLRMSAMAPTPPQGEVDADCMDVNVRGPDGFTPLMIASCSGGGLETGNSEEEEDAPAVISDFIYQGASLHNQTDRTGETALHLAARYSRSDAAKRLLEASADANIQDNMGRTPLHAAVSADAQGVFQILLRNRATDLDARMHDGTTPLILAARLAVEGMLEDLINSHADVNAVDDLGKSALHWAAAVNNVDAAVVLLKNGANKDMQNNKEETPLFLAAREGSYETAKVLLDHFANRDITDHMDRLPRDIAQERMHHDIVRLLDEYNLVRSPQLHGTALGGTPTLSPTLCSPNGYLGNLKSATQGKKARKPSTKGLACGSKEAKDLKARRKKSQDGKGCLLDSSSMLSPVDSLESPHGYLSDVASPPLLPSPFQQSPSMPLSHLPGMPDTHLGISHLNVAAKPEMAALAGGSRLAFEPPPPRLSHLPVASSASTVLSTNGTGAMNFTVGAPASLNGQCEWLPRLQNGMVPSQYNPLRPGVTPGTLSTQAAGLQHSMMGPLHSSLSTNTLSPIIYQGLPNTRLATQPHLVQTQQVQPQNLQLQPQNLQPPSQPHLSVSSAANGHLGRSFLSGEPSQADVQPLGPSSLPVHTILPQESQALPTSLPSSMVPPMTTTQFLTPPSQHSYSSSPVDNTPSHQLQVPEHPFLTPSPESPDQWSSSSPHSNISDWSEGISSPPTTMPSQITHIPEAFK
UniProt P70227: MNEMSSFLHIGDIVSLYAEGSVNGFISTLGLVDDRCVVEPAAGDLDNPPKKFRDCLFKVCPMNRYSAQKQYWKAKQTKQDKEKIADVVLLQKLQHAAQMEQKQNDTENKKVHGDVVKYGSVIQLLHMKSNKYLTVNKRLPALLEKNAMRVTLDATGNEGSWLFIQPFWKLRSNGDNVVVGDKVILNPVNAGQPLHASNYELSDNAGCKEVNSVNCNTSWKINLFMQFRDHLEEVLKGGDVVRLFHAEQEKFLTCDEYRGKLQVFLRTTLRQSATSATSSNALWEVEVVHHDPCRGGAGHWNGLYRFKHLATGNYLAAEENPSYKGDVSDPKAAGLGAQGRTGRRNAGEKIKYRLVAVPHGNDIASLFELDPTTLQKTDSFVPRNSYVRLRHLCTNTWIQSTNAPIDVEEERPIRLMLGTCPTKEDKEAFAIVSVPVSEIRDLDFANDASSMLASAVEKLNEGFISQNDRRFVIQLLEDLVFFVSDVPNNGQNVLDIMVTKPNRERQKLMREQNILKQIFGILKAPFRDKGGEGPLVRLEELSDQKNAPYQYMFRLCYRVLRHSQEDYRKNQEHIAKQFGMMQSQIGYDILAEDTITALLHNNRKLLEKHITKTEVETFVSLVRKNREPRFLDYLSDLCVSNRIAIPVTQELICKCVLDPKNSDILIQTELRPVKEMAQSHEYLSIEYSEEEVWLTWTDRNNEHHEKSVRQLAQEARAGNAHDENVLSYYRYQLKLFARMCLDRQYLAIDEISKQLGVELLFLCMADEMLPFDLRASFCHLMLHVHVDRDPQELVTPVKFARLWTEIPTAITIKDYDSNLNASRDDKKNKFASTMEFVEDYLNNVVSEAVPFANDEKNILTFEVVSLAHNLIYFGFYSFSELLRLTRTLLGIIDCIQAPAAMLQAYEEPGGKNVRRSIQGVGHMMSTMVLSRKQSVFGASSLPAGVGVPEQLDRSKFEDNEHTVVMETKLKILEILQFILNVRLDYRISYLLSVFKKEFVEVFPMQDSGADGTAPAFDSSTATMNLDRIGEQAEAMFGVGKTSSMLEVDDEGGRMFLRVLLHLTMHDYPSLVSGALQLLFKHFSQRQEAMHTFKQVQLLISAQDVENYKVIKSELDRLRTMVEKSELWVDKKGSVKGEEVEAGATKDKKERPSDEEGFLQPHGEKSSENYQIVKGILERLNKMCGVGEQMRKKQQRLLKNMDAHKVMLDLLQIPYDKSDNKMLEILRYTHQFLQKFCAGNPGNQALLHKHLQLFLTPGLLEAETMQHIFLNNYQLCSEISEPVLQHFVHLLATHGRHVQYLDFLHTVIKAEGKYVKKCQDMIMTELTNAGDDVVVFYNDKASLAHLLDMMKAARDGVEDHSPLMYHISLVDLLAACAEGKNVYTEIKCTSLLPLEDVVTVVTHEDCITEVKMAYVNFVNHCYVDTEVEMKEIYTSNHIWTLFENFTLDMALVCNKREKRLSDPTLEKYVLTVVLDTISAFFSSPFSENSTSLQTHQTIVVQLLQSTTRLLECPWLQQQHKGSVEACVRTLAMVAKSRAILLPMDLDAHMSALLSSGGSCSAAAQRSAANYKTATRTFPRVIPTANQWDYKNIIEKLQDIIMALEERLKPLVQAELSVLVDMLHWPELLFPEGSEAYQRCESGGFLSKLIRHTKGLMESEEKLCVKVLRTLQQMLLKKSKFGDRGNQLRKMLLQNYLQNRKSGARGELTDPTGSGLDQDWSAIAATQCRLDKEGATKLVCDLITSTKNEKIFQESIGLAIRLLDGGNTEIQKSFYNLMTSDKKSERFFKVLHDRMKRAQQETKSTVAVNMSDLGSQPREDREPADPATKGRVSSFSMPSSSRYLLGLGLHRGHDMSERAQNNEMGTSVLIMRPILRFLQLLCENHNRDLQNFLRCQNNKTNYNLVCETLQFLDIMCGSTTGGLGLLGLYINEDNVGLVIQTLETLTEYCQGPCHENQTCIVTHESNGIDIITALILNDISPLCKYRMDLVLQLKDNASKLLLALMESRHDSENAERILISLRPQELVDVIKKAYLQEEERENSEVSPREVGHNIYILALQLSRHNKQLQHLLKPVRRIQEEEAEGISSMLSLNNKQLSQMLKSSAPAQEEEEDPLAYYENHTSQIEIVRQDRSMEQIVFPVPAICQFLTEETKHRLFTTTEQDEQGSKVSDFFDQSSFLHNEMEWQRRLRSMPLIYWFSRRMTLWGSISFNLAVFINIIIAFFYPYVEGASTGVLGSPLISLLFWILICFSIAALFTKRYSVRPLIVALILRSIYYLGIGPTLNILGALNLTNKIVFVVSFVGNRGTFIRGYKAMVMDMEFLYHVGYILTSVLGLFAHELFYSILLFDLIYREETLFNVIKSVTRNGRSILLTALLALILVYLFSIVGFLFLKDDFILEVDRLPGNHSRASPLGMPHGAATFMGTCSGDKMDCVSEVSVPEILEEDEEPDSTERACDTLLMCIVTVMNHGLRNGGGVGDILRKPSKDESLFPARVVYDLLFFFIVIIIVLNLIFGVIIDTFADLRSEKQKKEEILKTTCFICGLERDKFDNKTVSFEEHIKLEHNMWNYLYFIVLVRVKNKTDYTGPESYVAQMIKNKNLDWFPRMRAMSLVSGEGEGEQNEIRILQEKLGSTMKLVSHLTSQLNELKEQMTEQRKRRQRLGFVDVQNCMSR
UniProt P38647, residues 47-679: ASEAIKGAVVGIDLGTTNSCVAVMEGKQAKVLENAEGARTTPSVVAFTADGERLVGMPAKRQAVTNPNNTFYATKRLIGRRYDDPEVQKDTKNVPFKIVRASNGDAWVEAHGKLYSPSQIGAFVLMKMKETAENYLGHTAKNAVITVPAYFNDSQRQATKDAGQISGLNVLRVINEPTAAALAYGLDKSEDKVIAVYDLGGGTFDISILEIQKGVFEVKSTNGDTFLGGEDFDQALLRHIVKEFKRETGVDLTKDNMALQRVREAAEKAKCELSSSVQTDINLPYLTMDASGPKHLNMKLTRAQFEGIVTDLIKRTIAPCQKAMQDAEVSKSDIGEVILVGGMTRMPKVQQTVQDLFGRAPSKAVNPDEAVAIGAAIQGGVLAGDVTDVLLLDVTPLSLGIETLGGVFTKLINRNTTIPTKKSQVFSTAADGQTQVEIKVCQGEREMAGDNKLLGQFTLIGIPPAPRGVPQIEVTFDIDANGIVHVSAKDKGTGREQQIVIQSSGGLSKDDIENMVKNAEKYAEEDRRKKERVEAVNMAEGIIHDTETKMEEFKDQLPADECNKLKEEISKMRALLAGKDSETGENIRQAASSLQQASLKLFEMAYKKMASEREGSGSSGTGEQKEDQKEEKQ
UniProt Q60932: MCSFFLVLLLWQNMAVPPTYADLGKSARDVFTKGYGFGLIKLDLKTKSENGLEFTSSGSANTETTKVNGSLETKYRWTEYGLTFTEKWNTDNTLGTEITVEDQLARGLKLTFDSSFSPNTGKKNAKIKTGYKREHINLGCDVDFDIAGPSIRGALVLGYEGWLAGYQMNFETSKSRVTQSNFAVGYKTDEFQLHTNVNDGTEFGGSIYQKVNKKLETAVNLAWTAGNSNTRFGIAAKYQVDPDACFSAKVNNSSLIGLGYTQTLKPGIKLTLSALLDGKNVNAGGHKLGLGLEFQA

The substances below were run against Notch1 (mouse (endogenous in Tregs from murine spleens)) (UniProt Q01705) (assay: co-IP; endogenous proteins; activated wild-type murine Tregs cultured 6 h without IL-2, lysed in RIPA buffer with 1% NP-40; supernatant incubated with antibody to Notch1 or Grp75 (6 ug) or control IgG for 16-18 h at 4°C, then Sepharose G/A plus beads for 3 h; washed with ice-cold PBS; western blot).

Row | binding | Substance
1 | no binding | Inositol 1,4,5-trisphosphate receptor, type 3 (IP3R3) (from UniProt P70227 1-2670)
2 | binds | glucose-regulated protein 75 (Grp75) (from UniProt P38647 47-679)
3 | no binding | Vps34 (from UniProt Q6PF93 1-887)
4 | binds | Voltage Dependent Anion Channel (VDAC)1 (from UniProt Q60932)

The substances below were run against glucose-regulated protein 75 (Grp75) (mouse (endogenous in Tregs from murine spleens)) (UniProt P38647) in the same assay as above.

Row | binding | Substance
5 | binds | Notch1 (from UniProt Q01705)
6 | binds | Voltage Dependent Anion Channel (VDAC)1 (from UniProt Q60932)
